US20230265174A1
Results are given in words; binding and its absence hold for the method and conditions named. Some entries that bind do so weakly or less than the wild type.

T1: galectin 3-binding protein (LGALS3BP) (UniProt Q08380)
T1 sequence (looked up): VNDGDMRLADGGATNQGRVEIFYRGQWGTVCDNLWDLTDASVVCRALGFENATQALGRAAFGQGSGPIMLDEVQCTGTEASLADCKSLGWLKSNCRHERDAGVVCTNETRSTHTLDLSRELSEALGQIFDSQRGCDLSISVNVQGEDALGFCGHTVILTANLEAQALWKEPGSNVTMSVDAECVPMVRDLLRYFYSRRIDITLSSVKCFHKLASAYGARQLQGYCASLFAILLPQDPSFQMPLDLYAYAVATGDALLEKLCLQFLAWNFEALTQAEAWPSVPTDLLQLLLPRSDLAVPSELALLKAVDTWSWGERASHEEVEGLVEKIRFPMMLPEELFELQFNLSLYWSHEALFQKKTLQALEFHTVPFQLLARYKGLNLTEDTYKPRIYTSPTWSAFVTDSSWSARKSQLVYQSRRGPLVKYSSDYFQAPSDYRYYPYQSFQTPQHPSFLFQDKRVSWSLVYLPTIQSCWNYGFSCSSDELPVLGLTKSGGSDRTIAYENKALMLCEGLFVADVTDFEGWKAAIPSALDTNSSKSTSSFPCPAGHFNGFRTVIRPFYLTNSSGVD


How the values were obtained:
[1] = molecular target: T1, galectin 3-binding protein (LGALS3BP); assay: ELISA after phage-display biopanning
[2] = molecular target: T1, galectin 3-binding protein (LGALS3BP); assay: functional analysis of antibody candidates (FIG. 5), method not described

binding [1]	binding [2]	Binder
binds	binds	LGALS3BP #67 antibody (CH2-67) (scFv, V domains shown) VH: AVTLDESGGGLQTPGGALSLVCKGSGFTFSSYGLGWVRQAPGKGLEYVAGISSGGATFYGAAMKGRATISRDNGQSTVRLQLNNLRAEDTATYYCAKDARSGSWSPDAGQIDAWGHGTEVIVSS VL: LTQPSSVSANLGGTVEITCSGSSGSHYGWFQQKSPGSAPVTLIYSNDKRPSDIPSRFSGSKSGSTATLTITGVQAEDEAVYFCGSIDSSGIFGAGTTLTVL
binds	binds	LGALS3BP #84 antibody (CH2-84) (scFv, V domains shown) VH: AVTLDESGGGLQTPGGALSLVCKASGFTFNGYGMNWVRQAPGKGLEWVAGIDDTGSYTAYAPAVRGRATISRDNGQSTVRLQLNNLRAEDTATYYCAKGYGDVWGGDEIDAWGHGTEVIVSS VL: LTQPSSVSANLGGTVKITCSGGSSGYGWHQQKSPGSAPVTVIYDNDKRPSDIPSRFSGSLSGSTNTLTITGVQAEDEAVYFCGGYDNSVGIFGAGTTLTVL
